Test results as given in PubChem BioAssay AID1347423 (Functional Genomics Laboratory (NCATS/FGL), 2020).
Among all 52,000 sequences or so, about 210 (0.4%) were called active.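 Rule for the calls: active = gene whose silencing raises cell survival under the drug, median off-target-corrected z-score across its silencing RNAs 2 or more; inactive = the rest.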 The list shows a part of the results.

Test: Resistance to Poly (ADP-Ribose) Polymerase inhibitor: Gene Identification via Genome-wide siRNA Screen
Conditions: mouse BRCA2 R2336H ES cells, olaparib, CellTiter-Glo viability; stronger effect = higher value
Text: The role of Poly (ADP-Ribose) Polymerase (PARP) proteins in DNA repair has been elegantly utilized for the synthetic lethality-based treatment of BRCA-deficient tumors by PARP inhibitors. PARP inhibitors are now being used for treatment of BRCA-deficient breast and ovarian cancers. […] While several mechanisms of drug resistance have been identified, majority of these tumors develop drug resistance due to unknown causes. To identified novel regulators of chemo-resistance in BRCA2-mutated cells, we performed a genome wide siRNA library screen. We have found ES cells expressing a hypomorphic allele of BRCA2 to be hypersensitive to PAPP inhibitors (such as olaparib). We used ES cells expressing a mutant allele of BRCA2 that has a single amino acid substitution at position 2336 (arginine to histidine, R2336H). The screen was conducted using an Ambion (Thermo) Silencer Mouse Genome siRNA collection. The library targets 17,575 mouse genes with 3 siRNAs per gene. TET2 (E130014J05Rik) was identified as a top candidate.
Transfections were performed in 384 well plates (Corning 3707). Plates were coated with 0.1% gelatin in H2O overnight at ambient temperature. Gelatin solution was aspirated (BioTek EL406) and siRNAs were printed using a Bravo VPrep liquid handler integrated within a BioCel automation platform (Agilent). Cell viability was measured using CellTiter Glo (Promega). For transfections, […] of serum free media containing Lipofectamine RNAiMax […] was added to wells containing siRNA (0.8pmol). Lipid and siRNA were allowed to complex for 45 min at ambient temperature before addition of 1000 cells in DMEM, 30% FBS to yield final transfection mixtures containing 20 nM siRNA in DMEM, 15% FBS. PARPi (olaparib, AZD2281) was added 48 h post-transfection (500 nM) and viability (CellTiter Glo, Promega) was assayed 72 h later on a PerkinElmer Envision 2104 Multilabel plate reader. Ambion Silencer Select Negative Control #2 was incorporated on all screening plates (16 wells) and the median negative control value on each plate was used for normalization. An siRNA targeting Trp53 was used as a positive control. This control yielded a median protective effect of ~1.9 fold versus negative control throughout the screen. The median absolute deviation (MAD) based z-score was calculated for each siRNA. Genes were then ranked by taking the median value for all siRNAs tested against a given gene. Scores were also adjusted for seed-based off-target effects to help deprioritize likely false positives.

| Sequence | z-score |
| --- | --- |
| GGGCACAGGAUCGUAUGAATT against Freq | inactive: 1.3 |
| GGCAAUUCUGGAGGCUCUUTT against Ubqln1 | inactive: 0.854 |
| GCUAAAAACAACUAGGAAATT against D430033N04Rik | inactive: 0.998 |
| CAGCAUCAAGCAGAAAAGATT against LOC432825 | inactive: -0.316 |
| GGGCUUCAGUGAGAACGAUTT against 1500035H01Rik | inactive: -2.36 |
| GCAUGGCCAAUCUACCCUUTT against Bcl9l | inactive: 1.51 |
| CCUUCUAAUUAUCACCAAATT against Arhgap18 | inactive: 0.633 |
| GCAGAAACCUCAUCACUAATT against Bambi | inactive: 0.591 |
| CCAUCUACAAGUGUCCUUATT against Zfp276 | inactive: -0.6 |
| GAGAUGUCGAUGCAAAUUCTT against Fxyd1 | inactive: -0.353 |
| GGACAUUUCACAAGUCAAATT against Tceb1 | inactive: 1.42 |
| GGUGAAUGAAACUUUCUGUTT against Adamts13 | inactive: 1.26 |
| GGAGAAACCAGCUAAAGGATT against Car9 | inactive: -0.266 |
| GGCUUUGUUAGUCUAUGACTT against 2610524A10Rik | inactive: 1.22 |
| GGUGCAGAGCUGGUUGACUTT against 4930542G03Rik | inactive: -2.67 |
| GGUUCUCGUGUGGCACACUTT against B3gat2 | inactive: -0.05 |
| GCAGCUGAAAAUCGAGAACTT against 4933409I22 | inactive: -1.18 |
| CCACACUCUUGGAAUUACGTT against Gsg1 | inactive: -0.337 |
| CCUCGUUCCAAUCAAGCCUTT against Ftsj3 | inactive: -0.215 |
| GGAGGAAGCUCAUCUAUGATT against Rpl7 | inactive: -3.14 |
| GGAAAUUACGCAUAUCCAUTT against Cntn1 | inactive: -0.857 |
| GGUCAUCAGUGAGCUGAAUTT against Rplp2 | inactive: -2.78 |
| GGAAAGACAAAGAACUCUATT against 1500011L16Rik | inactive: -0.589 |
| GCGAAUUGACAACUCCCUCTT against 3010027G13Rik | inactive: -0.35 |
| GGAAAUGAAUCUGAUCCUGTT against 9130231C15Rik | inactive: -0.434 |
| GGUGUUAGGAAGUCACAUUTT against Tas2r109 | inactive: -0.0271 |

Two entries from above, in CSV form:
Sequence,z-score
GGUGCAGAGCUGGUUGACUTT against 4930542G03Rik,inactive: -2.67
GGUUCUCGUGUGGCACACUTT against B3gat2,inactive: -0.05

(further entries)

| Sequence | z-score |
| --- | --- |
| GCGAAAAAUUCGGCAGCAGTT against 9430010O03Rik | inactive: 1.04 |
| CCGAGAAAUGGAAACUUAGTT against MGC91194 | inactive: -0.963 |
| GGAAAAGAAAGGAACACUGTT against Defb13 | inactive: -0.226 |
| GGACUUCUUUUGAAUCGGATT against Pex14 | inactive: -0.655 |
| GCUAAUGCACCAAUGUGAGTT against Pafah1b3 | inactive: -1.11 |
| CCCUCAGAUCUUUCAGUCUTT against E330040A16Rik | inactive: -1.2 |
| GCUAUCUCGGUGUCAACUUTT against Aqp7 | inactive: 2.03 |
| GGCUCCUCUCCAAGAAUAUTT against C330019G07Rik | inactive: -1.04 |
| CCAAUGUUUGAAUUCUUCGTT against Nudt1 | inactive: -0.322 |
| GCCCUAUCCACCCAUUGAGTT against Hs3st1 | inactive: -1.41 |
| GGUGUUCUACUGUGCAUUATT against 9330132A10Rik | inactive: -0.505 |
| GCUCAAAACGCACGUGAAGTT against Wrb | inactive: -0.106 |
| GGUAUGGUAUUGUGUAUUUTT against Cyp2c38 | inactive: -0.409 |
| GGACAUCAUUACAAAGAUGTT against Rgs6 | inactive: -0.00923 |
| GGCAUGUUUCUACAUCUUATT against Rgs12 | inactive: 0.679 |
| CGUGCACUGGAGAUUCCAUTT against Slc41a1 | inactive: -1.37 |
| GCAAUGGUUCUCUUCAACCTT against Ppp3cb | inactive: -0.712 |
| GGAAGCGUGGAAGUCUACGTT against Kcnj16 | inactive: -0.609 |
| GGAAGAAUUUGACAACCGCTT against Mrps18c | inactive: -0.103 |
| GCGUAAGCAGCAAGAUGGATT against Ash2l | inactive: -1.26 |
| GCUGAGAAUCGUUUAAAUGTT against 2010321J07Rik | inactive: -0.924 |
| CCCACUAAGAAACAAUCUATT against Gp1ba | inactive: 0.484 |
| GGAUUCUUUCCAACAGAUUTT against Wwp2 | inactive: -1.21 |
| GGUCAUGGUUAUUUUGUUATT against AI194308 | inactive: 0.18 |
| GGAAAGAAAAAAGAUGGUCTT against Riok1 | inactive: -1.05 |
| CGCCACAGACAUUCAGUUATT against Sec23ip | inactive: -0.23 |

| Sequence | z-score |
| --- | --- |
| GGUGCAAACAGACACCAGATT against Dct | inactive: 0.552 |
| GCGAACAGAAAAGACCAAUTT against Col4a5 | inactive: 1.11 |
| UGGACUUGCUUCUCACAUCTT against Olfr694 | inactive: 2.1 |
| GGAUUGUGCUAACCUGCUGTT against 1600014C10Rik | inactive: -0.419 |
| GGAGCUUAUAAGAAAUGGGTT against 9030221A05Rik | inactive: -0.119 |
| GGAAUAGUCAACUUGGUAUTT against Kntc2 | inactive: -3.08 |
| GGAGGAAGAAACAGACAUCTT against Nup37 | inactive: -2.03 |
| GCUUCAGGAUAUUGUAAAGTT against Olfr1459 | inactive: -0.943 |
| GGCAACCAAAGUUAGUGUGTT against Ifi16 | inactive: -0.238 |
| GCUUGAAUGUUGAGUGGAGTT against Mup3 | inactive: -0.377 |
| GCUCAGAUGUAUGUAUUCATT against Olfr247 | inactive: 3.79 |
| GGCUUAGAGCUUCCUCUAATT against Adprhl1 | inactive: 0.6 |
| GCAGAUAGAGAUGAAGCUGTT against Phactr3 | inactive: 0.217 |
| GGGAACUCAAAGAAGAGAGTT against 2210402C18Rik | inactive: -1.19 |
| CCAAUUCCUCUCAAUGUCATT against 2310002B06Rik | inactive: -0.618 |
| CGUUGCUGGUCCAACAGAATT against BC032925 | inactive: -0.554 |
| GGAGGUUAUCAGAUAUGCATT against Edar | inactive: 0.929 |
| GGUUCUCCGAACUCUGUUGTT against AW049900 | inactive: -1.88 |
| CGUGAAGAAAAACGGGUUUTT against Snrpn | inactive: -1.24 |
| GGAUGAAGACGACUAUCCCTT against Lat | inactive: 0.605 |
| GGUAUCCUGUAACUACUCUTT against D130020L05Rik | inactive: -1.48 |
| CCUGAAGGGUCUGGCAAAATT against C630007C17Rik | inactive: -2.44 |
| GCACUAGCAGACUAGGUGATT against A630026F21Rik | inactive: -0.263 |
| GCGAGAUUCUUGCUUACUCTT against 2310009N05Rik | inactive: -0.529 |
| CGAGAUCUCCGUCGAGUAATT against Brf2 | inactive: -0.777 |
| GGGAAUCUUCCGUUUAAGUTT against Pcdhga10 | inactive: -0.344 |

Look-ups from the entries so far:
Value of GCAUGGCCAAUCUACCCUUTT against Bcl9l under z-score: inactive: 1.51
Value of GGUGAAUGAAACUUUCUGUTT against Adamts13 under z-score: inactive: 1.26
Value of GCUGAGAAUCGUUUAAAUGTT against 2010321J07Rik under z-score: inactive: -0.924
Value of GGAAAUGAAUCUGAUCCUGTT against 9130231C15Rik under z-score: inactive: -0.434

Remaining list, next part.

| Sequence | z-score |
| --- | --- |
| GCUUACCUUUGGAUUCAAATT against Cd68 | inactive: 1.91 |
| CGAAAGUACCAUGCCUACATT against Clecsf5 | inactive: -0.47 |
| GCGGGAACAAGUUGAUAGATT against Pspc1 | inactive: -0.734 |
| GGCUUUUAUCCCAACAGUGTT against Mbnl3 | inactive: -0.716 |
| CCUUAUUCCACCCAUUUUCTT against Rai3 | inactive: 0.67 |
| ACAUUGUAAUUCUCACCGUTT against Olfr1322 | inactive: -0.285 |
| GGCAGCUGAAAGAAGAUCUTT against Dffa | inactive: 0.127 |
| GGACUAUUGUCUCAUUUGATT against Olfr1189 | inactive: 0.441 |
| GGAAUGUCUCCUGUCUGUGTT against Pttg1ip | inactive: -2.56 |
| GGAAGUGAGGAACUGUGUCTT against Prodh2 | inactive: 2.16 |
| GGAUCAGCUUGUUCUCAGATT against Plpcd | inactive: 0.408 |
| GGUCACAUCGUCCUUACAGTT against Rps6ka4 | inactive: -0.0463 |
| GGCUCAGAAAAUUGAUCGATT against Pscd2 | inactive: 1.11 |
| GGAAGCCAUGACAUUCAAGTT against Zfp286 | inactive: 1.43 |
| GGCUACAGCAGGAGAAUCATT against BC038613 | inactive: -2.14 |
| GGAUAGUCUCAGUAACUAUTT against Grin2a | inactive: -0.516 |
| GGACCCUCCAACUGUAAAUTT against Gtl2 | inactive: -0.638 |
| GGAGGAUCAGUGAGAUUAATT against Wbp4 | inactive: -1.59 |
| UUAUGUGGCACAAAUAAAUTT against Olfr138 | inactive: -0.814 |
| GGACAAGAUGUUGAGUAUUTT against Plrg1 | inactive: -1.94 |
| GGAUUGACAGUGGUCUAUATT against Copz1 | inactive: -3.11 |
| GCCAACCUUCGUAAGACACTT against Dgkz | inactive: 0.191 |
| GGCAACCAUAGACGAUGAATT against Rerg | inactive: 0.934 |
| GGUACAAACGUAAGGCCUATT against Leng1 | inactive: 1.02 |
| GGUCAUGUGUGGUUACAUUTT against Depdc5 | inactive: -0.656 |
| GGUGAGCAAAGCCAAGAAGTT against Sgpl1 | inactive: -0.914 |
